Source: US8293494
No constants are given. Whether binding was seen depends on the method and setting. For some of these results: In cells and extracts the contact can be indirect. Some binding calls cover weakened binding; strength is not graded here. For some of these results: Tags and fused reporters may be left off the sequences shown.

Legend:
Flag-AR, P10275 [1] = molecular target: T1, Flag-AR, P10275; experiment: co-immunoprecipitation with α-Flag from transfected 293 cells, Western blot with α-V5; conditions: remark: other sources report otherwise
T1 chain: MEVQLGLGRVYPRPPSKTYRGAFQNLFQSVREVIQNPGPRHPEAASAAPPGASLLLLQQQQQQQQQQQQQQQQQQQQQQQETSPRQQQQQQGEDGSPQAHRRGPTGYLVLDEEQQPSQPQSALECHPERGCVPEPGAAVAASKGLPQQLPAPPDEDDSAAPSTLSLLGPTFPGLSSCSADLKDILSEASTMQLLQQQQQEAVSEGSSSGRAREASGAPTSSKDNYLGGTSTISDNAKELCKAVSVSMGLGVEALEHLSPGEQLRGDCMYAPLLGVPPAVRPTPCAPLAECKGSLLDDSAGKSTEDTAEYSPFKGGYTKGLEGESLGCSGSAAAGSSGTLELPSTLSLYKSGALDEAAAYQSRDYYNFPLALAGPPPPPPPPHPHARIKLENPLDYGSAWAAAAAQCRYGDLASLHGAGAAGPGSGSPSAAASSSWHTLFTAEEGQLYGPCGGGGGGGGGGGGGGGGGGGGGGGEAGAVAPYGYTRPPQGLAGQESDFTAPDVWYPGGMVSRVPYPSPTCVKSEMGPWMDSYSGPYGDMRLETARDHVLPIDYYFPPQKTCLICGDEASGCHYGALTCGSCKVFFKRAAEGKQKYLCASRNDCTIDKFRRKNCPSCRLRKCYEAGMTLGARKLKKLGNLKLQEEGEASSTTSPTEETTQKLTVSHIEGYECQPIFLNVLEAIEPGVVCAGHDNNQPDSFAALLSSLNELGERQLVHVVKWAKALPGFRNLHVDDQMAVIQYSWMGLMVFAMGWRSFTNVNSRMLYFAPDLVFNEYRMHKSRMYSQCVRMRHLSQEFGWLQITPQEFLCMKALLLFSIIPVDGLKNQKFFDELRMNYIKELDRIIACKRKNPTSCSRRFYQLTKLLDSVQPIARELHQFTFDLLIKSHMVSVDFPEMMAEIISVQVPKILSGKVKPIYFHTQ

Flag-AR, P10275 [2] = molecular target: T1, Flag-AR, P10275; experiment: TAP purification, TEV release, then α-Flag immunoprecipitation from transfected 293 cells; conditions: remark: other sources report otherwise
GST-AR-NTD [3] = molecular target: GST-AR-NTD (UniProt P10275); experiment: GST pull-down with labelled JMJD2C
GST-AR-DBD [4] = molecular target: GST-AR-DBD (UniProt P10275); experiment: GST pull-down with labelled JMJD2C
GST-AR-LBD [5] = molecular target: GST-AR-LBD (UniProt P10275); experiment: GST pull-down with labelled JMJD2C
GST-AR-NTD [6] = molecular target: GST-AR-NTD (UniProt P10275); experiment: GST pull-down of purified proteins, Western blot with α-JMJD2C
GST-AR-DBD [7] = molecular target: GST-AR-DBD (UniProt P10275); experiment: as above
GST-AR-LBD [8] = molecular target: GST-AR-LBD (UniProt P10275); experiment: as above
MBP-JMJD2C, Q9H3R0 = molecular target: T2, MBP-JMJD2C, Q9H3R0; experiment: MBP pull-down with labelled full-length AR; conditions: remark: other sources report otherwise
T2 chain: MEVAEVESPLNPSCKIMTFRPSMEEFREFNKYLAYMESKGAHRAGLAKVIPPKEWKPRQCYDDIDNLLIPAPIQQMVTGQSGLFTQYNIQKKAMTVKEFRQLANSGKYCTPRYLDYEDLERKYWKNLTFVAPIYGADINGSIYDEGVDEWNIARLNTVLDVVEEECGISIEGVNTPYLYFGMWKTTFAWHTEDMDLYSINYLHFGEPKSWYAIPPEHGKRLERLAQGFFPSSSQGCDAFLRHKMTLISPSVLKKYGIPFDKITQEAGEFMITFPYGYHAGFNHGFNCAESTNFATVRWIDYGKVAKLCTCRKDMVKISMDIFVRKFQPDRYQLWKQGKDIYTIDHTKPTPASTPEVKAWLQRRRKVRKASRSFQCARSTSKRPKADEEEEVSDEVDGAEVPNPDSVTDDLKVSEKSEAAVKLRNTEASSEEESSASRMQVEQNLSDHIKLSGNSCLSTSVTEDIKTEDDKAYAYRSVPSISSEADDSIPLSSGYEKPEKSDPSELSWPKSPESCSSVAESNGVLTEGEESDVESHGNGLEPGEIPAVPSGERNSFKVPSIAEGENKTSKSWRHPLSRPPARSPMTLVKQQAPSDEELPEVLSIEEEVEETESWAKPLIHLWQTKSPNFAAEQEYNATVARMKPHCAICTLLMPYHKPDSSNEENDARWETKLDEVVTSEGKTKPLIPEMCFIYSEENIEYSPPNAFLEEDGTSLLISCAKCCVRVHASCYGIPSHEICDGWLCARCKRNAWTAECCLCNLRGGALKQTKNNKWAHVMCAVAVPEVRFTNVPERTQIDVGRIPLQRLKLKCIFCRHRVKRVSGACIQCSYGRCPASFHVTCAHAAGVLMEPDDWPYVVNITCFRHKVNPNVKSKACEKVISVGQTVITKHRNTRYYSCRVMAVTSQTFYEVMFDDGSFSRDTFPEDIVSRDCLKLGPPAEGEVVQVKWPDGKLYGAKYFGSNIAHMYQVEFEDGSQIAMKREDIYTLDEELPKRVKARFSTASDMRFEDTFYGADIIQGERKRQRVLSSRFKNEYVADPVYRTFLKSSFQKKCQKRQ

[9] = molecular target: T3, androgen receptor (endogenous, ligand-bound, LNCaP cells) (human), P10275; experiment: Re-ChIP (α-AR, then α-JMJD2C) in R1881-treated LNCaP cells; conditions: remark: other sources report otherwise
T3 chain: T1 chain

B1: V5-JMJD2C, Q9H3R0 1-1056 (enzyme, UniProt Q9H3R0 1-1056, looked up, not shown: small tags and cut ends)
chain: T2 chain
Flag-AR, P10275 [1]
  binding: binds
Flag-AR, P10275 [2]
  binding: binds

B2: labelled full-length JMJD2C (in vitro translated) (enzyme, UniProt Q9H3R0 1-1056, looked up)
chain: T2 chain
GST-AR-NTD [3]
  binding: binds
GST-AR-DBD [4]
  binding: binds
GST-AR-LBD [5]
  binding: binds

B3: MBP-JMJD2C (enzyme, UniProt Q9H3R0 1-1056, looked up, not shown: large carriers)
chain: T2 chain
GST-AR-NTD [6]
  binding: binds
GST-AR-DBD [7]
  binding: binds
GST-AR-LBD [8]
  binding: binds

B4: labelled full-length AR (ARwt), P10275 1-920 (receptor, UniProt P10275 1-920, looked up)
chain: T1 chain
MBP-JMJD2C, Q9H3R0
  binding: binds

B5: JMJD2C (endogenous, LNCaP cells), Q9H3R0 1-1056 (enzyme, human, UniProt Q9H3R0 1-1056, looked up)
chain: T2 chain
[9]
  binding: binds
